According to US20070166719A1 (NEW ENGLAND BIOLABS, published 2007):

Tested on: CspCI (R-M-CspCI / S-CspCI heterodimer) (Citrobacter sp. 2144 (NEB#1398))
Test: enzyme reaction in vitro
Conditions: NEBuffer 2, AdoMet, 37 C, purified recombinant protein, only the site is given

AGTGCCACCTGACGTGCAACCTAGGTGGCACGTCTAAGAAACC (double strand) [pUC1CspC-4 CspCI site]
activity on this sequence (cleavage 11/13 CAA N5 GTGG 12/10): active

AGTGCCACCTGACGTGCCACCCGGGTTGCACGTCTAAGAAACC (double strand) [pUC1CspC-1 CspCI site]
activity on this sequence (cleavage 10/12 CAA N5 GTGG 13/11): active
